# The campaign covered roughly 31,000 sequences. About 1,400 (4.5%) were called active.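 Rule for the calls: active = median seed-adjusted z-score above 1 or below -1; inactive = the rest.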 This is one part of the list.
# Assay: Novel Modifiers of Survival Motor Neuron (SMN) Protein: Gene Identification via Genome-wide siRNA Screen;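 note: luminescence tracks full-length SMN protein made from the SMN2 reporter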
# Details: HEK293T SMN2-luciferase reporter, siRNA knockdown, 72 h; actives lie on both sides
# In short: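 siRNA screen, 10418 genes ×3 siRNAs; 1 pmol/well, lipid reverse transfection into HEK293T SMN2-luc reporter line. 72 h, 37 °C, 5% CO2; ONE-Glo readout. Data: neg-ctrl normalized, log10, MAD; hit = MAD >1.0 or < -1.0.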
row,Sequence,median seed-adjusted z-score
1,GAUCCAGACAAAAAGAAUUTT against PRSS35,inactive: -0.0119
2,GCAGUGCUAUUCCCAGUAATT against ITGA5,inactive: 0.915
3,ACUGCAAUCUGUUGCCCAATT against CLIC5,inactive: 0
4,CAACAAAAGUUUCAUGCUATT against STK35,inactive: 0.519
5,CACUGAACUUCUACACCAATT against ADAMTS9,inactive: 0.103
6,GCUUGAUGCUGUAUCGGAATT against MSH3,inactive: 0.428
7,AAUACAAACUUGUAAAUCATT against ZIC4,inactive: 0.512
8,CAGAUGCUCUGAAUCAUCATT against DCLK2,inactive: -0.552
9,GGAUCCUACUGGUAAAACUTT against NUDT5,inactive: 0.228
10,GCCUCUACAUCUAGUGAUATT against JMJD1C,inactive: 0.0338
11,GAGUCAUGAUCUCAGCUUUTT against KRTAP9-3,inactive: -0.184
12,CAGUUCUGACUUAUAGUGATT against SNAI3,inactive: -0.195
13,CGUCUGGAUCGAGUACUAUTT against CACNG1,inactive: -0.452
14,CGAGCAAUCGAGAUCUACATT against NAPA,inactive: -0.563
15,CAGUGUAUGUCAAACAUAATT against AP3M2,inactive: 0.327
16,GGAUCUGACAGACAAUGAUTT against ABCC3,inactive: -0.549
17,GGAAACAUGGUUAAUCUAUTT against KCNN3,inactive: -0.625
18,GGAACGAGGCAGAUAUGGATT against NMNAT2,active: -1.58
19,GGACCAUAGAUGUUACCGATT against DHX30,inactive: 0.335
20,CGCUGACCGCAUGCAGAAATT against ACTA1,inactive: -0.103
21,CAGCUAUACAGGAAUUAUUTT against SLC25A16,inactive: 0.0479
22,GCUUCUAUAUUCAUGCUAATT against DDX6,active: 1.12

row,Sequence,median seed-adjusted z-score
1,GCUAUGGUGCUGUCGCUUATT against RHOXF2,inactive: -0.331
2,AAACUUUUGGGAAACAGUATT against RAB28,inactive: 0.114
3,GAACGAAGGUUUCUUGGUUTT against B3GNT1,inactive: 0.0931
4,GCUCAGAAGCAGUAAUGCATT against PQBP1,active: -1.12
5,GUAGUUCAGUUGCUCGAGATT against ATP6V0A4,inactive: -0.141
6,GAAUGUGCCAAGUGUAAGATT against SIRT6,inactive: 0.0126
7,GCUGCUUCGUGGAAGACCATT against TMPRSS3,inactive: -0.554
8,CCAAAUACAUCGCAUUAGATT against GTPBP4,active: 1.01
9,CAAAGGCGAUAACAUCUAUTT against UBE2E1,inactive: 0.888
10,GACGAGUUCUUUAUGCUUATT against MGST3,inactive: -0.0509
11,GAGAAGAUCCUAAAUGAGATT against PLK3,inactive: -0.116
12,CAAGGUCAUUAAUAAGGAUTT against CST5,inactive: 0.466
13,GAACGGCUACGAAAAUCCATT against APP,inactive: 0.0204
14,GGAGCUCCAUGGGAUAGAATT against PSMB9,inactive: -0.788
15,GACUUCCAGAUGUUACAAATT against NMT2,inactive: 0.494
16,CAAACUAUCUCUGAAAAUATT against TRYX3,active: 2.3
17,GGACUGAUUGGACUCCCAUTT against TNFRSF11A,inactive: -0.0833
18,GGAGUACCACUUUAUCUCATT against MPP1,inactive: -0.0762
19,GGACCAACUUCUACGCAGATT against AARS2,inactive: -0.52
20,GGUAUUCCGCUGGAAAGUATT against NFIA,inactive: -0.268
21,CCAUCUAUCGCAACGACAATT against RAB3A,inactive: -0.0787
22,CCAAGGUGGUGUUCAUUGATT against NFATC4,inactive: 0

# A few values from the entries so far.
# median seed-adjusted z-score, GUAGUUCAGUUGCUCGAGATT against ATP6V0A4 is entered as inactive: -0.141
# median seed-adjusted z-score, GAACGGCUACGAAAAUCCATT against APP is entered as inactive: 0.0204

# (continued)

row,Sequence,median seed-adjusted z-score
1,GAGAAUUUUAUAGACCGUATT against HS3ST2,inactive: 0.133
2,GGAUCUUCAAAGUCACGAATT against CACNA1B,inactive: 0.0963
3,GGGUCCUCUUGGAACUCAATT against TPBG,inactive: -0.128
4,CAAGUUCCUUGGAAAUAAATT against LPCAT3,inactive: -0.388
5,GGGUCAAGAUCGAGGAUAATT against MYOM3,inactive: -0.012
6,GCAGGAAAGAGAUCGAAGATT against RANBP1,inactive: 0.545
7,GAAUGAUGCGUGAUCGUGATT against G3BP2,inactive: -0.336
8,CACCUACGAUAGCUACUAUTT against NKTR,active: -1.1
9,AGAACCUGCUUCUCAAGAATT against STAT6,inactive: 0.28
10,CGGUCUAACCUCUAUCGGATT against PPT2,inactive: 0.0334
11,GGCAAAACUGUUCCGAUUUTT against RANBP1,inactive: 0.545
12,GGAAUAAGGUAAUUGAACATT against MAPK10,inactive: -0.0114
13,CUACAUUGAUUACUGUUUATT against ZMYND17,inactive: -0.00314
14,GGAAGUAUUUGACUCGGCUTT against RHOV,inactive: -0.326
15,GAAUCCAAGUGCAUUUCUUTT against TPSG1,inactive: 0
16,AGCUGGAGGUCAACAAGUATT against TIMP3,active: -1.05
17,GAAUGACUGAGAACUAUUUTT against RBM38,inactive: 0.0358
18,GUCAGUUGUUAGAACAUAATT against TRIM24,inactive: -0.22
19,GCGGAUUUCUGAGUCCGAATT against HMX3,inactive: 0.238
20,GCAACUGCAGGUUAUCUGATT against GRK7,inactive: 0.288
21,CCCUCCUACCUGUACAUAATT against MAP3K8,inactive: -0.533
22,CCAAGACUGUGACACCAAATT against SCUBE3,inactive: 0.152

# 2 entries from above, bar-delimited.
row | Sequence | median seed-adjusted z-score
9 | AGAACCUGCUUCUCAAGAATT against STAT6 | inactive: 0.28
10 | CGGUCUAACCUCUAUCGGATT against PPT2 | inactive: 0.0334

# Later entries.

row,Sequence,median seed-adjusted z-score
1,UCAAGAUGCUUCAUUCAUATT against NEUROG1,inactive: 0.485
2,GCCGCACAAGUGAACCUCATT against CR1L,inactive: -0.038
3,GCACCUACUUCAUCUAUAGTT against EDA,inactive: 0.316
4,GGCGUGACAAGAUCAAUGATT against USP19,inactive: 0.47
5,GGAGCACAGGUAAGGCUAATT against HSPA6,inactive: 0.364
6,UCAUCUUCAUGACCUACAATT against SLC31A1,inactive: 0
7,CUGCGGCUGUUGAACCUGATT against FBXL6,inactive: -0.182
8,GUACCAGACUUCACCAUUATT against MPI,inactive: -0.526
9,GCACAUCUCUGAUGUGGAATT against CARHSP1,inactive: 0.384
10,GCUGUUUUAUUGUCCAGCATT against PAAF1,inactive: -0.422
11,GGACAAUUCUUUGACCUAATT against PPP3CC,inactive: 0.271
12,GCCGUGACCUACUUCAUCATT against SLC29A4,inactive: 0.0192
13,AGUUCUACUUUGACAGGGATT against KCNF1,inactive: -0.19
14,GGAGCACGUACAAUACAGATT against FAR2,inactive: 0.0328
15,ACCUCUACGUGGUCAGCUATT against DPP9,inactive: -0.224
16,GCAUGAUCUUUCGAAGGGATT against CSNK2A2,inactive: -0.155
17,GACUCAUCGUGAUGAGAUUTT against SLC7A9,inactive: 0.194
18,ACUUCUGCCUGAAUACCCATT against DHFRL1,inactive: -0.646
19,GAUAUUUGAUUGAUGUAGATT against DUSP11,inactive: -0.0184
20,CCUCCAUGGCGGACAAGAATT against GPR157,inactive: 0.152
21,GAGAGUUUAUGGUCAAGGUTT against SGPL1,inactive: 0.139
22,GGACCGGUGGAUUCCUUAATT against ZNF775,inactive: 0.00364

row,Sequence,median seed-adjusted z-score
1,GCUCGGAAAAUUUAAGAUUTT against RGS7,inactive: 0.415
2,GGAGCAUGGAGAUUAUACATT against NEK5,inactive: 0.0403
3,AGACAGUUUGUACAAUGAATT against ST6GAL1,inactive: -0.14
4,CUCCUGCAGUUGAAGGUGATT against FKBP8,inactive: -0.304
5,CCUCGUGACUUGAAUCGGATT against REPS2,inactive: 0.454
6,GCGUAUGACUUCUUACUCATT against SH3BP4,inactive: -0.0622
7,CCGUAGAUGUGAAGUGUAATT against NFXL1,inactive: 0.118
8,GGGACUCUCAUUUACCAAATT against ZNF354B,inactive: 0.393
9,GGCCAUCGCCUACUCAUUGTT against SLC26A1,inactive: 0.377
10,GGCUUGUCUUCGUCUCCAATT against MCM9,inactive: -0.709
11,CCGUGUACGUGGAUGAUGATT against LPHN1,active: -1.03
12,GCAAAUGCCUUUAAACCAATT against ARSD,inactive: -0.447
13,AGCUGCUGUCUGAACCCAATT against SST,inactive: -0.043
14,CGGGAUUUAUCAACUCAAATT against DHODH,inactive: -0.422
15,GGAGACCAACAAGACCAUUTT against TSNARE1,inactive: -0.0516
16,CCAUCUCUACACACAAAAATT against F2RL3,inactive: 0.133
17,ACACCAACCCGGGAACAAATT against GSK3A,inactive: 0.248
18,CAUUGAAGAGAGUAAUUAATT against UGT2B7,inactive: 0.313
19,CAACUGCAAUUUUCCCUAUTT against ASCL1,inactive: 0.132

# — PubChem BioAssay AID1347426 (Functional Genomics Laboratory (NCATS/FGL), 2020)
